Out of some 340,000 compounds screened, about 170 (0.05%) were called active. This list was built around the results that the source calls inconclusive (neither active nor inactive); the mix of calls is not that of the screen. Calls come from the whole dose curve; as a rule, active = well fitted inhibition curve with a large enough effect in the signal ratio, with a control signal flat (not every such curve was filed as active); inconclusive = small, poorly fitted or top-dose-only effect, or effect the other way, or a change in a side signal; inactive = flat fitted curve, though single readings scatter; the % refers to the signal ratio. Potencies of inconclusive entries are doubtful fits and often do not repeat.
assay: qHTS Assay to Find Inhibitors of Chronic Active B-Cell Receptor Signaling; conditions: ABC-DLBCL IkBa-CBG/CBR reporter, luminescence ratio (green luciferase fused to IkBa over red control in TMD8 lymphoma cells), 4 h; activity change, negative = inhibition: at 46.1 µM (top of the series);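 for activity change, negative = inhibition: plate controls were basal doxycycline-induced cells for no effect and cells given 10 µM MG132 for full effect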
Outline: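 Doxycycline induced both beetle luciferases in TMD8 lymphoma cells; IKK-driven degradation limits the IkappaBalpha-fused green signal, while red luminescence normalises for cell number and nonspecific effects. Compounds tested up to 46 uM, 4 hrs.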
Potency is the fitted concentration of half-maximal effect.

Structure (SMILES) | activity change, negative = inhibition | Potency
COc1ccc(/C=C2\C(=O)c3ccccc3OC2c2ccccc2)cc1 (stereo unspecified) | inconclusive: -20.6% | –
CC(C)CC(=O)NC(=S)Nc1nc(-c2cccc3ccccc23)cs1 | inactive: 11.7% | –
COc1ccc(-c2cc(N3CCCC3)n3ncnc3n2)cc1 | inconclusive: -15.3% | –
COc1ccc(C(=O)NC(=S)N2CCCC2)cc1 | inactive: -2.66% | –
N#C/C(=C\c1c(F)cccc1Cl)c1nn(-c2ccccc2)c(-n2cccc2)c1C#N | inconclusive: 1.4% | –
CCCCN1CCc2c1nc1ccc(Br)cc1c2N | inconclusive: 0.262% | –
CCOC(=O)c1cc(-c2ccccc2)n(CCC(=O)N2CCN(c3ccc(OC)cc3)CC2)c1C | inactive: -14.1% | –
CC1=CC(C)(C)N(C(=O)c2ccccc2)c2ccccc21 | inconclusive: 1.97% | –
COc1ccc(-c2cc(C(F)(F)F)n3nc(C(=O)NCc4ccco4)cc3n2)cc1OC | inconclusive: -2.66% | –
Cc1ccccc1C(=O)Nc1ccc(Br)cn1 | – | inconclusive: 22.4 µM [falling, partial curve]
COc1ccc(S(=O)(=O)N2CCCCCC2)cc1C(=O)Nc1cc(C)ccn1 | inconclusive: 9.04% | –
COc1ccc(OC)c(C2/C(=C(\O)c3ccc(OC)c(Cl)c3)C(=O)C(=O)N2CCN(C)C)c1 (stereo unspecified) | inconclusive: 1.88% | –
COc1ccccc1-c1nc(C#N)c(N2CC(C)CC(C)C2)o1 (stereo unspecified) | inconclusive: -10.6% | –
COc1ccc(NC(=O)C2CCCN(c3ncccn3)C2)cc1 (stereo unspecified) | inactive: 2.8% | –
CC(C)=CC(=O)Nc1nc2ccc([N+](=O)[O-])cc2s1 | inconclusive: -1.32% | –
CC(C)NC(=O)c1onc(CSc2ccc(F)cc2)c1C(=O)O | – | inconclusive: 28.2 µM [falling, partial curve]
Cc1cccc(NC(=O)COc2ccc3c(c2)CCC3)n1 | – | inconclusive: 8.2 µM [falling, partial curve]
C/C(=N/NS(=O)(=O)c1ccc(Cl)cc1)c1ccncc1 | inconclusive: -6.62% | –
CCC(=O)Nc1ccc(NC(=O)c2ccc3c(c2)OCO3)cc1 | – | inconclusive: 14.6 µM [falling, partial curve]
COc1ccccc1N1CCN(CCCCN2C(=O)C3CCCCN3C2=O)CC1 (stereo unspecified) | inactive: 6.45% | –
CCOC(=O)C(=CNc1ccc2c(c1)c1ccccc1n2CC)C(=O)OCC | – | inconclusive: 20 µM [falling, partial curve, poor fit]

Structure (SMILES) | activity change, negative = inhibition | Potency
CCc1c(C)nc(SCC(=O)Nc2ccc(Br)cc2)[nH]c1=O | inconclusive: 0% | –
CC(C)Oc1ccc(C(=O)Nc2ccccc2N2CCCC2)cc1 | inconclusive: 12.5% | –
Cc1ccccc1C(=O)NC(=S)Nc1ccc(S(=O)(=O)N2CCOCC2)cc1 | – | inconclusive: 3.26 µM [falling, full curve]
CCc1ccc(C(=O)N2CCN(c3ccc(NC(=O)c4cccnc4)cc3)CC2)cc1 | inconclusive: -1.65% | –
C=CCNC(=O)C(C#N)c1nc2ccccc2nc1N1CCN(Cc2ccccc2)CC1 (stereo unspecified) | inactive: 29.3% | –
COc1ccccc1N1C(=O)CC(Nc2ccc(N3CCOCC3)cc2)C1=O (stereo unspecified) | inconclusive: -9.25% | –
CC(=O)Nc1ccc(C(=O)OCC(=O)NC(=O)NC(C)(C)C)cc1 | – | inconclusive: 29.1 µM [rising, single point]
Cc1c(N=Cc2ccc[nH]2)c(=O)n(-c2ccccc2)n1C | inconclusive: 3.21% | –
O=C(c1ccc([N+](=O)[O-])cc1Cl)N1CCN(c2ccccn2)CC1 | inconclusive: -1.3% | –
O=Cc1c(Nc2cccc(C(F)(F)F)c2)nc2ccccn2c1=O | inconclusive: 2.96% | –
COc1ccnc2c1c(=O)n(Cc1cccc(F)c1)c(=O)n2C | inconclusive: -16.7% | –
O=C(NN1C(=O)C2C(c3ccccc3)C=CC(c3ccccc3)C2C1=O)c1ccccc1 (stereo unspecified) | inconclusive: -0.317% | –
Cn1cc(CCC(=O)NC2CC(C)(C)Cc3c2cnn3-c2ccc(F)cc2)cn1 (stereo unspecified) | inactive: -4.78% | –
COc1cccc(NC(=O)COC(=O)C2CC3CCCC(C2)C3=O)c1 (stereo unspecified) | inactive: 3.35% | –
NC(=O)COC(=O)CCCSc1nc2ccccc2s1 | inconclusive: 27.4% | –
O=C(N/N=C/c1cccc(NC(=O)c2ccc(Cl)cc2)c1)c1cccc(O)c1 | – | inconclusive: 4.47 µM [falling, partial curve]
COc1ccc(NS(=O)(=O)c2ccc3oc(SCC(N)=O)nc3c2)cc1 | inactive: -8.77% | –
CCC(C)C(=O)Nc1nnc(SCC(=O)Nc2ccc(F)cc2)s1 (stereo unspecified) | – | inconclusive: 31.6 µM [rising, partial curve, poor fit]
COc1ccc(CN(C)C(=O)c2cc(-c3ccc(C)cc3C)nc3ccccc23)c(OC)c1OC | inconclusive: -11.6% | –
O=C(c1ccccc1)c1ccc(OCC(=O)N2CCOCC2)cc1 | – | inconclusive: 35.5 µM [falling, single point]
CCOC(=O)c1ccccc1NC(=O)CN(c1ccccc1OC)S(=O)(=O)c1ccc(C)cc1 | – | inconclusive: 2 µM [rising, full curve, poor fit]

Rewritten tab-delimited: 2 of the compounds above.
Structure (SMILES)	activity change, negative = inhibition	Potency
C=CCNC(=O)C(C#N)c1nc2ccccc2nc1N1CCN(Cc2ccccc2)CC1 (stereo unspecified)	inactive: 29.3%	–
COc1ccccc1N1C(=O)CC(Nc2ccc(N3CCOCC3)cc2)C1=O (stereo unspecified)	inconclusive: -9.25%	–

Additional compounds:

Structure (SMILES) | activity change, negative = inhibition | Potency
Cc1ccc(N2C(=O)c3cccc4c([N+](=O)[O-])ccc(c34)C2=O)c2cccnc12 | inactive: 5.69% | –
O=C(/C=C/c1ccc2c(c1)OCO2)Nc1nc2ccccc2s1 | inconclusive: -18.9% | –
CCOc1cc(N2CCOCC2)c(OCC)cc1NCC(=O)N1CCN(Cc2ccccc2)CC1 | inconclusive: -12.8% | –
Cc1cccc(Cn2c(CN3CCC(C(=O)NCCc4ccccc4)CC3)cc3ccccc32)c1 | inconclusive: -1.78% | –
Cc1ccc(CSCC(=O)N2CCN(Cc3ccc4c(c3)OCO4)CC2)cc1 | inconclusive: -11.4% | –
CCN(CC)CCC(c1ccc2c(c1)OCO2)c1c(OC)cc(OC)c2ccc(=O)oc12 (stereo unspecified) | inactive: -3.5% | –
O=C(Nc1cccc2ccccc12)N1CCc2ccccc2C1 | – | inconclusive: 20.6 µM [falling, partial curve]
Cn1c(SCC(=O)c2ccc(-c3ccccc3)cc2)nnc1-c1ccco1 | inactive: 8.24% | –
Cc1ccc(NS(=O)(=O)c2ccc(OCC(=O)Nc3cccc([N+](=O)[O-])c3)c(C)c2)cc1 | inconclusive: 0.0828% | –
CC(C)Oc1ccc(C(=O)/C(=C\c2cccs2)c2nc3ccccc3o2)cc1 | inactive: -1.61% | –
CCOC(=O)NC(=O)/C(C#N)=C\NNc1ncc(C(F)(F)F)cc1Cl | inactive: 6.3% | –
NC(=O)CS(=O)(=O)c1nc2ccccc2n1CC(=O)N1CCCCC1 | inconclusive: 14.7% | –
COc1ccc(CCC(C)NCc2ccc(C(F)(F)F)cc2)cc1 (stereo unspecified) | inconclusive: 10.1% | –
NC(=O)c1ccccc1NC(=O)/C=C/c1ccc(Cl)cc1 | – | inconclusive: 18.4 µM [falling, single point]
C/C(=N/NC(=O)c1sc(NS(=O)(=O)c2ccccc2)nc1C)c1ccc(F)cc1 | – | inconclusive: 20.6 µM [falling, partial curve, poor fit]
Cn1c(Cc2ccccc2)nnc1SCc1nc2ccccc2c(=O)[nH]1 | inactive: -5.33% | –
O=C(Nc1cc(-c2ccccc2)cs1)c1ccco1 | – | inconclusive: 18.4 µM [falling, single point]
CC(=O)c1cccc(CN2CCCCC2C(=O)Nc2ccc(Oc3ccccc3)nc2)c1 (stereo unspecified) | inconclusive: 5.21% | –
COc1ccc(C2c3c(-c4ccccc4O)n[nH]c3C(=O)N2Cc2ccco2)cc1 (stereo unspecified) | inconclusive: -14.7% | –
CCOC(=O)N1CCN(C(=O)Nc2ccc3nc(C)c(C)nc3c2)CC1 | inconclusive: 3.87% | –
Cc1cccc(NC(=O)CSc2cccc3cccnc23)c1 | – | inconclusive: 15.8 µM [falling, partial curve, poor fit]

Among those listed so far, 19 contain an aryl methoxy group:
Structure (SMILES) | activity change, negative = inhibition | Potency
COc1ccc(/C=C2\C(=O)c3ccccc3OC2c2ccccc2)cc1 (stereo unspecified) | inconclusive: -20.6% | –
COc1ccc(-c2cc(N3CCCC3)n3ncnc3n2)cc1 | inconclusive: -15.3% | –
COc1ccc(C(=O)NC(=S)N2CCCC2)cc1 | inactive: -2.66% | –
CCOC(=O)c1cc(-c2ccccc2)n(CCC(=O)N2CCN(c3ccc(OC)cc3)CC2)c1C | inactive: -14.1% | –
COc1ccc(-c2cc(C(F)(F)F)n3nc(C(=O)NCc4ccco4)cc3n2)cc1OC | inconclusive: -2.66% | –
COc1ccc(S(=O)(=O)N2CCCCCC2)cc1C(=O)Nc1cc(C)ccn1 | inconclusive: 9.04% | –
COc1ccc(OC)c(C2/C(=C(\O)c3ccc(OC)c(Cl)c3)C(=O)C(=O)N2CCN(C)C)c1 (stereo unspecified) | inconclusive: 1.88% | –
COc1ccccc1-c1nc(C#N)c(N2CC(C)CC(C)C2)o1 (stereo unspecified) | inconclusive: -10.6% | –
COc1ccc(NC(=O)C2CCCN(c3ncccn3)C2)cc1 (stereo unspecified) | inactive: 2.8% | –
COc1ccccc1N1CCN(CCCCN2C(=O)C3CCCCN3C2=O)CC1 (stereo unspecified) | inactive: 6.45% | –
COc1ccccc1N1C(=O)CC(Nc2ccc(N3CCOCC3)cc2)C1=O (stereo unspecified) | inconclusive: -9.25% | –
COc1ccnc2c1c(=O)n(Cc1cccc(F)c1)c(=O)n2C | inconclusive: -16.7% | –
COc1cccc(NC(=O)COC(=O)C2CC3CCCC(C2)C3=O)c1 (stereo unspecified) | inactive: 3.35% | –
COc1ccc(NS(=O)(=O)c2ccc3oc(SCC(N)=O)nc3c2)cc1 | inactive: -8.77% | –
COc1ccc(CN(C)C(=O)c2cc(-c3ccc(C)cc3C)nc3ccccc23)c(OC)c1OC | inconclusive: -11.6% | –
CCOC(=O)c1ccccc1NC(=O)CN(c1ccccc1OC)S(=O)(=O)c1ccc(C)cc1 | – | inconclusive: 2 µM [rising, full curve, poor fit]
CCN(CC)CCC(c1ccc2c(c1)OCO2)c1c(OC)cc(OC)c2ccc(=O)oc12 (stereo unspecified) | inactive: -3.5% | –
COc1ccc(CCC(C)NCc2ccc(C(F)(F)F)cc2)cc1 (stereo unspecified) | inconclusive: 10.1% | –
COc1ccc(C2c3c(-c4ccccc4O)n[nH]c3C(=O)N2Cc2ccco2)cc1 (stereo unspecified) | inconclusive: -14.7% | –

Continuation:

Structure (SMILES) | activity change, negative = inhibition | Potency
COC(=O)c1cc(Nc2cc(C)nc3ncnn23)cc(C(=O)OC)c1 | inconclusive: 1.95% | –
Cc1cnc(C(=O)NC2CC(C)(C)Cc3c2cnn3-c2ccccc2)cn1 (stereo unspecified) | inactive: 7.01% | –
Cc1ccc(S(=O)(=O)N(CCCO)CC(O)CON=C2c3ccccc3-c3ccccc32)cc1 (stereo unspecified) | – | inconclusive: 18.4 µM [falling, partial curve]
CN(C)C(CNC(=O)c1ccc(NS(=O)(=O)c2ccc(F)c(F)c2)cc1)c1ccccc1 (stereo unspecified) | inconclusive: -6.02% | –
COCCn1c(=N)c(S(=O)(=O)c2ccc(Br)cc2)cc2c(=O)n3ccccc3nc21 | inconclusive: 3.34% | –
COc1cccc(N(C(=O)c2csnn2)C(C(=O)NC2CCCC2)c2ccccc2)c1 (stereo unspecified) | inactive: -1.77% | –
O=C(c1ccc2ccccc2c1)C1CCCN(C(=O)c2cccnc2)C1 (stereo unspecified) | inactive: 5.08% | –
COc1ccc(-c2cc(C(F)(F)F)n3nc(C(=O)Nc4c(C)n(C)n(-c5ccccc5)c4=O)c(Cl)c3n2)cc1 | inconclusive: -0.259% | –
CCCn1c(C(C)Nc2nc(-c3cc(Cl)c(N)c(Cl)c3)cs2)nc2cc(Cl)c(N3CCCCC3)cc21 (stereo unspecified) | inconclusive: 16.6% | –
O=C(COC(=O)c1cc(Br)ccc1O)Nc1ccc2c(c1)OCCO2 | – | inconclusive: 11.6 µM [falling, partial curve]
O=C(N/N=C/c1cccnc1)c1ccc2c(c1)OCO2 | – | inconclusive: 22.4 µM [falling, single point]
CN(C)CC(O)COC(c1ccccc1)c1ccccc1 (stereo unspecified) | inactive: -0.37% | –
CCOC(=O)C(=O)N1CCC(C(=O)OC)CC1 | inactive: 5.52% | –
Cc1ccoc1C(=O)N1CCN(C(=O)c2occc2C)CC1 | inconclusive: 16.4% | –
COC(=O)c1scc(S(C)(=O)=O)c1-n1cccc1 | inconclusive: 3.89% | –
O=C(/C=C\Nc1ccc(S(=O)(=O)Nc2ncccn2)cc1)c1ccccc1 | inconclusive: 3.19% | –
CCc1nc(SCC(=O)N2c3ccccc3CC2C)c2c(C)c(C)sc2n1 (stereo unspecified) | inconclusive: -17.8% | –
COc1ccc(N(CC(=O)NCc2ccc(C)cc2)S(=O)(=O)c2c(C)noc2C)cc1 | inconclusive: 11.2% | –

Reference: PubChem BioAssay AID493014 (National Center for Advancing Translational Sciences (NCATS), 2011)
